Source: patent US20250108023A1, “Products for Masking Bitterness” (The Third People's Hospital of Henan Province, priority 2023, published 2025)
At least one read-out could not be matched to a standard name with certainty.

Assay: Oral spray bitterness masking taste test by volunteers with Coptis chinensis standard bitter solution
Assay type: in vivo, healthy volunteers
Design: key: drop in bitterness value (0.5–5.5 scale) from initial
Details: 0.2% solution in 60% ethanol as oral spray; original bitterness average 4.0; average of 31 cases
Experimental: Purpose of the experiment: it is to screen out compounds that take effect within 5 seconds, last for 30-120 seconds, and it is expected, by using such kind of compounds, the taste of the drug cannot be felt during the duration (30-120 seconds) when taking the drug.
Principle of the experiment: simulate the process of taking medicine and using the taste masking agents, first spray about 0.5 ml of oral spray on the throat (3 times), and after it takes effect quickly, taste 10 ml of bitter standard solution to screen drugs that can be used in advance and can mask the bitter taste.
• 1: Volunteer screening. The research team strictly screened the recruited volunteers and finally selected healthy volunteers as subjects. They signed informed consent forms before the experiment; • 2: Standard bitterness sample preparation. The bitterness of the samples was divided into five levels, and each level was assigned a certain bitterness value range; • 3: The sensory standard was corrected by the oral taste evaluation method, that is, the sensory standard was corrected by comparing the taste evaluation of the volunteers with the established bitterness value of the reference sample group. […]

Structure (SMILES) | Reduction of bitterness
Cc1ccc(C(C)C)cc1O [Carvacrol] | 0
COc1ccc(CCN(C)CCCC(C#N)(c2ccc(OC)c(OC)c2)C(C)C)cc1OC (centres unmarked) [Verapamil, 5-((3,4-dimethoxyphenylethyl)methylamino)-2-(3,4-dimethoxyphenyl)-2-isopropylvaleronitrile, reference compound] | 0
